Values from PubChem BioAssay AID1224830 (NIAID, 2016)

Aim: 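Host factors that control LPS-induced TNF expression in human macrophages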 (primary screen)
System: human THP-1 monocytic leukaemia cells, TNF dual-luciferase reporter clone, PMA-differentiated to macrophage-like cells
Knock-down reagent: siRNA pool against human genes, 50 nM
Time to read-out: LPS for 4 h, given about 3 days after siRNA transfection
Treatment: bacterial LPS (TLR4 ligand), 10 ng/ml
Measurement: 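TNF firefly reporter luminescence divided by renilla, normalised to the plate median, then turned into a robust z-score for each replicate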
Scale: TNF reporter robust z-score: higher = stronger TNF reporter response to LPS
Rule for the call: 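Each well counts as active if its z-score is over 2.8 or under -1.5; controls are left without a call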
The deposit covers about 18,000 reagents; this is a part drawn at random. About 2,900 of all reagents (16%) were called active. 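Calls are made per well; low scores hint the gene aids the LPS response, high scores that it dampens it.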 Entries without a mark were called inactive. Repeated entries: four replicate wells of each siRNA pool.

The opening 4 entries as a preview:
| Gene | TNF reporter robust z-score |
| --- | --- |
| OXCT2 | -0.1 |
| OXCT2 | 1.07 |
| OXCT2 | 0.18 |
| OXCT2 | 1.16 |

Results, from the first entry:
| Gene | TNF reporter robust z-score |
| --- | --- |
| OXCT2 | -0.1 |
| OXCT2 | 1.07 |
| OXCT2 | 0.18 |
| OXCT2 | 1.16 |
| OR10AD1 | 1.54 |
| OR10AD1 | 0.53 |
| OR10AD1 | 1.92 |
| OR10AD1 | -0.13 |
| CDK11A | -0.25 |
| CDK11A | 1.14 |
| CDK11A | 0.49 |
| CDK11A | 0.29 |
| PHOSPHO2 | 2.25 |
| PHOSPHO2 | 0.98 |
| PHOSPHO2 | 1.4 |
| PHOSPHO2 | -0.65 |
| DAB2 | -1.04 |
| DAB2 | -0.08 |
| DAB2 | 1.02 |
| DAB2 | -0.09 |
| NCOA1 | -0.36 |
| NCOA1 | -0.28 |
| NCOA1 | -0.4 |
| NCOA1 | 0.17 |
| ATP13A3 | -0.88 |
| ATP13A3 | -1.16 |
| ATP13A3 | -0.51 |
| ATP13A3 | 0.07 |
| MAGEA2B | -0.78 |
| MAGEA2B | -0.4 |
| MAGEA2B | 0.28 |
| MAGEA2B | 0.5 |
| CCDC112 | 1.18 |
| CCDC112 | 0.59 |
| CCDC112 | 1.28 |
| CCDC112 | -0.52 |
| DYDC1 | -0.5 |
| DYDC1 | -0.83 |
| DYDC1 | 0 |
| DYDC1 | -0.41 |
| DUT | 2.05 |
| DUT | 2.03 |
| DUT | 1.28 |
| DUT | 1.4 |
| ABLIM1 | -0.45 |
| ABLIM1 | 0.05 |
| ABLIM1 | -0.56 |
| ABLIM1 | -0.4 |
| UBQLN2 | -0.63 |
| UBQLN2 | -0.2 |
| UBQLN2 | 0.65 |
| UBQLN2 | -0.42 |
| RAD9B | 0.95 |
| RAD9B | 1.35 |
| RAD9B | 0.36 |
| RAD9B | -0.3 |
| TENT4A | 1.09 |
| TENT4A | 0.52 |
| TENT4A | 0.97 |
| TENT4A | 0.87 |
| TSBP1 | 0.82 |
| TSBP1 | 1.25 |
| TSBP1 | 1.23 |
| TSBP1 | -0.91 |
| RPL21P44 | -0.66 |
| RPL21P44 | -0.01 |
| RPL21P44 | -0.8 |
| RPL21P44 | -0.78 |
| TAS2R1 | 0.24 |
| TAS2R1 | 0.05 |
| TAS2R1 | 0.47 |
| TAS2R1 | 0.08 |
| MYCBPAP | -0.19 |
| MYCBPAP | -0.26 |
| MYCBPAP | -0.52 |
| MYCBPAP | 0.12 |
| SAXO2 | -0.01 |
| SAXO2 | -0.2 |
| SAXO2 | 0.24 |
| SAXO2 | 0.26 |
| GRAMD1B | 1.53 |
| GRAMD1B | 0.96 |
| GRAMD1B | 2.38 |
| GRAMD1B | 0.52 |
| COX7C | -0.56 |
| COX7C | 0.25 |
| COX7C | -0.43 |
| COX7C | 0.27 |
| AKIRIN2 | 0.31 |
| AKIRIN2 | 0.91 |
| AKIRIN2 | -0.94 |
| AKIRIN2 | -0.87 |
| SPATA12 | -1.53 (active) |
| SPATA12 | -0.98 |
| SPATA12 | -1.74 (active) |
| SPATA12 | -0.68 |
| DHRS7 | -1.66 (active) |
| DHRS7 | -1.16 |
| DHRS7 | -1.17 |
| DHRS7 | -1.06 |
| GADL1 | 0.14 |
| GADL1 | 0.97 |
| GADL1 | -0.06 |
| GADL1 | 1.43 |
| RHEX | 0 |
| RHEX | 0.25 |
| RHEX | -0.61 |
| RHEX | -0.67 |
| ADAM33 | 2.01 |
| ADAM33 | 2.83 (active) |
| ADAM33 | 1.48 |
| ADAM33 | 1.31 |
